Where “and” joins values, the source holds several entries; their conditions need not be identical. Equal values may be shown once. In all, about 300,000 compounds went through this assay and about 5,400 (1.8%) were called active. This list was built around the results that the source calls inconclusive (neither active nor inactive); the mix of calls is not that of the screen. Calls come from the whole dose curve; tested in HEK293 cells. A potency beside an inconclusive call is a rough fit, not a confirmed value.
Experiment: qHTS for inhibitors of binding or entry into cells for Marburg Virus
Conditions: Marburg virus pseudotyped entry inhibition, cell reporter; series mostly up to 37.8 µM
Potency is the fitted concentration of half-maximal effect.

Structure (SMILES) | Potency
COCCNC(=O)c1cc(Br)ccc1Cl | inactive
COc1ccc(CC(NC(C)=O)C(=O)N2CCN(C(=O)Nc3ccc(Cl)cc3)CC2)cc1OC (stereo not given) | inactive
O=C(c1c(Cl)nc2sccn12)N(C(=O)c1c(Cl)nc2sccn12)c1ccc(Cl)cn1 | inactive
Cc1cc(Cl)n2c(nc3ccccc32)c1C#N | active: 4.47 µM
CCOC(=O)c1ccc(NC(=O)CCOc2ccc(OC)cc2)cc1 | inactive
Cc1cccc2sc(NC(=O)[C@H](C)N3C(=O)C4CC=CCC4C3=O)nc12 (stereo not given in full) | inactive
Cc1ccc(NC(=S)NNc2ncc(C(F)(F)F)cc2Cl)cc1 | inconclusive: 10 µM [inhibitor, partial curve]
CCC1CN(C(=O)N2CCC(C(=O)O)CC2)c2cc(C)ccc2O1 (stereo not given) | inconclusive: 5.01 µM [activator, single point]
O=C(Nc1cccc2ncccc12)c1ccco1 | inconclusive: 28.2 µM [activator, single point]
Cc1ccc(C(=O)N(C)c2ccc(OCC(=O)N3c4ccc(C)cc4C4CN(C)CCC43)cc2)cc1 (stereo not given) | inconclusive: 22.4 µM [inhibitor, partial curve, poor fit]
Cc1ccc(NC(/C=C/N(C)C)=C/C(=O)C(F)(F)F)c(C)c1 | inconclusive: 35.5 µM [inhibitor, partial curve, poor fit]
O=C(Nc1ccc(Cl)c(Cl)c1)Nc1ccccc1C(=O)O | inconclusive: 3.16 µM [inhibitor, full curve, poor fit]
Cc1cccc(C)c1NC(=O)C(c1ccccc1)N1CCN(C(=O)c2ccco2)CC1 (stereo not given) | inactive
CCOC(=O)c1c(C)sc2c1N(C(=O)CN(CC)CC)c1cc(Cl)ccc1S2 | inconclusive: 35.5 µM [inhibitor, single point]
O=[N+]([O-])c1ccc(/C=N/N=C/c2ccc([N+](=O)[O-])o2)o1 | inconclusive: 3.55 µM [inhibitor, full curve, poor fit]
CC(=O)c1nn(-c2ccc(OC(F)(F)F)cc2)nc1Nc1ccc(C)cc1 | inactive
CCOC(=O)c1c(NC(=O)CN(CC)CC)sc2c1CCC2 | inactive
CC(CCc1ccccc1)NCC(O)COc1ccccc1 (stereo not given) | inconclusive: 29.1 µM [inhibitor, single point]
Cc1cc(C)c(C)c(OCCNCc2ccccc2)c1 | inconclusive: 20 µM [inhibitor, partial curve, poor fit]
COc1ccccc1NS(=O)(=O)c1cc(NC(=O)COc2ccccc2)ccc1N1CCOCC1 | inconclusive: 35.5 µM [inhibitor, partial curve, poor fit]
CCC(CC)c1nnc(NC(=O)c2ccco2)s1 | inconclusive: 11.2 µM [activator, single point]
COc1ccc(C(=O)NC2CC(C)(C)Cc3c2cnn3-c2ccccc2C)c(OC)c1OC (stereo not given) | inconclusive: 8.91 µM [inhibitor, partial curve, poor fit]

Structure (SMILES) | Potency
Cc1cc(C)c2nc(NC(=O)c3ccc(OCC4CCCO4)cc3)sc2c1 (stereo not given) | inconclusive: 11.6 µM [activator, partial curve, poor fit]
Cn1nnc2cc(C(=O)Nc3ccccc3F)ccc21 | inconclusive: 6.31 µM [activator, full curve, poor fit]
COc1cc2ccnc(Cc3cccc(OC)c3OC)c2cc1OC | inactive
Cc1occc1C(=O)N1CCC2(CCCN(Cc3ccc(F)c(F)c3)C2)C1 (stereo not given) | inconclusive: 17.8 µM [inhibitor, partial curve]
Cc1cc(C)c(NC(=O)CSc2ncc(S(=O)(=O)c3ccc(C(C)(C)C)cc3)c(=O)[nH]2)c(C)c1 | inactive
COc1ccc2c(c1)C(NC(=O)C(F)(F)F)CC21CCCCC1 (stereo not given) | inconclusive: 0.0084 µM [inhibitor, full curve, poor fit]
CCOc1ccc(C(=O)NC(C(=O)NCCc2ccc(S(N)(=O)=O)cc2)C(C)C)cc1 (stereo not given) | inconclusive: 7.08 µM [inhibitor, partial curve, poor fit]
O=C1C2CCCCN2C(=O)N1CCCCN1CCN(c2cccc(C(F)(F)F)c2)CC1 (stereo not given) | inactive
CCS(=O)(=O)N1CCC(C(=O)Oc2ccc(C(=O)OC)cc2)CC1 | inconclusive: 0.891 µM [inhibitor, full curve, poor fit]
COc1ccc(C=CNC(=O)c2ccc(OC)cc2)cc1 | inactive
COc1ccccc1Nc1c2c(nc3ccc(NC(=O)c4cccc(F)c4)cc13)CCCC2 | inconclusive: 1.12 µM [inhibitor, full curve, poor fit]
COCCn1c(=O)[nH]c(=O)c2cc(C(=O)c3cc(Cl)ccc3O)cnc21 | inactive
Cc1ccc(S(=O)(=O)NN2C(=O)c3ccccc3NC2c2ccccc2)cc1 (stereo not given) | inconclusive: 11.2 µM [inhibitor, partial curve, poor fit]
Fc1cccc(Cl)c1CSC1=NCCS1 | inactive
Cc1nn(C)c(C)c1NC(=O)CSc1nc(C2CC2)nc2c1cnn2-c1ccccc1 | inconclusive: 13 µM [inhibitor, partial curve, poor fit]
COc1ccc2c(c1)[C@@H](NC(=O)C(F)(F)F)C1CCCCC21c1ccccc1 (stereo not given in full) | inactive
Cc1nnc(NC(=O)/C=C/c2ccco2)s1 | inconclusive: 20.6 µM [activator, single point]
CCn1cc(C(=O)NCCc2ccccc2)c(=O)c2cc(S(=O)(=O)N3CCCC3)ccc21 | inconclusive: 2 µM [activator, partial curve, poor fit]
Cc1ccc(C)c(C(=O)c2ccccc2NC(=O)c2ccccn2)c1 | inconclusive: 6.31 µM [inhibitor, single point]
CCOc1cc(CNc2nn[nH]n2)ccc1OCC(=O)NC(C)(C)C | inactive
C/C(CC(=O)NCc1ccccc1)=N\NC(=O)c1cnccn1 | inactive
CCOC(=O)N1CCN(C(=O)c2cc(COc3cccc(C(F)(F)F)c3)on2)CC1 | inconclusive: 6.31 µM [activator, single point]

12 structures from above, ordered by SMILES length, high to low.
Structure (SMILES) | Potency
O=C(c1c(Cl)nc2sccn12)N(C(=O)c1c(Cl)nc2sccn12)c1ccc(Cl)cn1 | inactive
CCn1cc(C(=O)NCCc2ccccc2)c(=O)c2cc(S(=O)(=O)N3CCCC3)ccc21 | inconclusive: 2 µM [activator, partial curve, poor fit]
COc1ccccc1NS(=O)(=O)c1cc(NC(=O)COc2ccccc2)ccc1N1CCOCC1 | inconclusive: 35.5 µM [inhibitor, partial curve, poor fit]
COc1ccc(C(=O)NC2CC(C)(C)Cc3c2cnn3-c2ccccc2C)c(OC)c1OC (stereo not given) | inconclusive: 8.91 µM [inhibitor, partial curve, poor fit]
Cc1nn(C)c(C)c1NC(=O)CSc1nc(C2CC2)nc2c1cnn2-c1ccccc1 | inconclusive: 13 µM [inhibitor, partial curve, poor fit]
Cc1cccc2sc(NC(=O)[C@H](C)N3C(=O)C4CC=CCC4C3=O)nc12 (stereo not given in full) | inactive
Cc1ccc(S(=O)(=O)NN2C(=O)c3ccccc3NC2c2ccccc2)cc1 (stereo not given) | inconclusive: 11.2 µM [inhibitor, partial curve, poor fit]
Cc1ccc(NC(/C=C/N(C)C)=C/C(=O)C(F)(F)F)c(C)c1 | inconclusive: 35.5 µM [inhibitor, partial curve, poor fit]
CCOc1cc(CNc2nn[nH]n2)ccc1OCC(=O)NC(C)(C)C | inactive
Cn1nnc2cc(C(=O)Nc3ccccc3F)ccc21 | inconclusive: 6.31 µM [activator, full curve, poor fit]
Cc1cc(Cl)n2c(nc3ccccc32)c1C#N | active: 4.47 µM
O=C(Nc1cccc2ncccc12)c1ccco1 | inconclusive: 28.2 µM [activator, single point]

From PubChem BioAssay AID540276 (National Center for Advancing Translational Sciences (NCATS), 2011)
